No constants are given. Whether binding was seen depends on the method and setting. Some entries that bind do so weakly or less than the wild type.

In patent US20030032157A1, “Polypeptides interactive with Bcl-XL” (priority 2001, published 2003) one finds binding data, which are given here for two molecules.

Test [1] addresses human Bcl-XL-GST fusion protein (human) [GST: P08515]. Put plainly: free peptide on immobilized Bcl-XL-GST with Bak BH3 competitor.
For test [2] the target is unchanged. The test is described as follows: mRNA display selection on immobilized Bcl-XL-GST; cluster found among sequenced clones.

B1: SEQ ID NO 245 (peptide)
chain: RWWMCGGRMEDMLCCRVGH
As to B1, in test [1], the binding result is “binds”.

B2: Novel protein D, clone T25 (peptide)
peptide: GTRISDMLKLIADTWQRNCCPA
modifications: 35S-Met labelled in vitro translation product
In the case of B2, the binding entry in test [2] is “binds”.
